PMC3168500
Results are given in words; binding and its absence hold for the method and conditions named. Binding seen in cells or lysates may run through a third protein. Some entries that bind do so weakly or less than the wild type.

By UniProt entry, the sequences of proteins in these tests, tags left out.
UniProt P38532: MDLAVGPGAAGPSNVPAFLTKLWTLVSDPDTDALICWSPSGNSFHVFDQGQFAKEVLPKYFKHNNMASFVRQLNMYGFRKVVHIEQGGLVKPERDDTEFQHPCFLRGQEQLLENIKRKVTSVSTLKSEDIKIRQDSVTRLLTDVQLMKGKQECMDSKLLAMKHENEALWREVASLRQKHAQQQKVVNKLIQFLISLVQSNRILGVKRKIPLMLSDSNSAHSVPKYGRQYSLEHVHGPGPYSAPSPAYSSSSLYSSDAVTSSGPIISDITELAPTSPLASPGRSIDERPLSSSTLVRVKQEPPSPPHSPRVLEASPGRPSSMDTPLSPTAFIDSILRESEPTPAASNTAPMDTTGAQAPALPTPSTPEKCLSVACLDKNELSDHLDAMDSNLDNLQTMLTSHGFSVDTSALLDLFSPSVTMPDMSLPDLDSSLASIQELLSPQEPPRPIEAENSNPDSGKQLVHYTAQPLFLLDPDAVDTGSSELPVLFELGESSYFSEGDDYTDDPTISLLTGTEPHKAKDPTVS
UniProt Q9WTL8: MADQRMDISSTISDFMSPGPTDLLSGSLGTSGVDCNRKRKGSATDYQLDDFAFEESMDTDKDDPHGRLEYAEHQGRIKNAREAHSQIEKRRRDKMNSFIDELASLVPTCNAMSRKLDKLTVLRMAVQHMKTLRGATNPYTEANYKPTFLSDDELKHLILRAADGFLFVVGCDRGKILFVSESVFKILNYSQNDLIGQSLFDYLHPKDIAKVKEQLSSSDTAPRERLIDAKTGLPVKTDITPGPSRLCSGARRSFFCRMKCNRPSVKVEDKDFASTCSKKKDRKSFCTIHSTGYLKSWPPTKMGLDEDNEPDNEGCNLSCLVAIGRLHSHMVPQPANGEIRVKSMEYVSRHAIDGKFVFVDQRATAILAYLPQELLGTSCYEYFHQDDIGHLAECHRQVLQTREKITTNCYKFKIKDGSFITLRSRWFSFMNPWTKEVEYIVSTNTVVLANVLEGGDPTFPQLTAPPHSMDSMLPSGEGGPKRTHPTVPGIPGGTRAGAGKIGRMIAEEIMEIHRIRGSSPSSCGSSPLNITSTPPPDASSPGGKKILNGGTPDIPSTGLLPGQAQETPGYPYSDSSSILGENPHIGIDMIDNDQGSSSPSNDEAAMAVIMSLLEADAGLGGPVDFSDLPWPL

What was measured:
[1] = biological target: Heat shock factor 1 (mouse (endogenous in MEFs)) (UniProt P38532); experiment: co-IP; endogenous proteins in lysates of WT MEFs taken before, without and at times (3 and 21 h) after an HS pulse (43°C, 30 min); immunoprecipitation with anti-BMAL1 or anti-HSF1 antibody, immunoblotting for HSF1, BMAL1 and CLOCK
[2] = biological target: BMAL1 (mouse (endogenous in MEFs)) (UniProt Q9WTL8); experiment: as above

binding [1] | binding [2] | Molecule
binds |  | BMAL1 (from UniProt Q9WTL8 1-632)
 | binds | Heat shock factor 1 (from UniProt P38532 1-525)
binds | binds | CLOCK (protein, UniProt O08785 1-855) MVFTVSCSKMSSIVDRDDSSIFDGLVEEDDKDKAKRVSRNKSEKKRRDQFNVLIKELGSMLPGNARKMDKSTVLQKSIDFLRKHKETTAQSDASEIRQDWKPTFLSNEEFTQLMLEALDGFFLAIMTDGSIIYVSESVTSLLEHLPSDLVDQSIFNFIPEGEHSEVYKILSTHLLESDSLTPEYLKSKNQLEFCCHMLRGTIDPKEPSTYEYVRFIGNFKSLTSVSTSTHNGFEGTIQRTHRPSYEDRVCFVATVRLATPQFIKEMCTVEEPNEEFTSRHSLEWKFLFLDHRAPPIIGYLPFEVLGTSGYDYYHVDDLENLAKCHEHLMQYGKGKSCYYRFLTKGQQWIWLQTHYYITYHQWNSRPEFIVCTHTVVSYAEVRAERRRELGIEESLPETAADKSQDSGSDNRINTVSLKEALERFDHSPTPSASSRSSRKSSHTAVSDPSSTPTKIPTDTSTPPRQHLPAHEKMTQRRSSFSSQSINSQSVGPSLTQPAMSQAANLPIPQGMSQFQFSAQLGAMQHLKDQLEQRTRMIEANIHRQQEELRKIQEQLQMVHGQGLQMFLQQSNPGLNFGSVQLSSGNSNIQQLTPVNMQGQVVPANQVQSGHISTGQHMIQQQTLQSTSTQQSQQSVMSGHSQQTSLPSQTPSTLTAPLYNTMVISQPAAGSMVQIPSSMPQNSTQSATVTTFTQDRQIRFSQGQQLVTKLVTAPVACGAVMVPSTMLMGQVVTAYPTFATQQQQAQTLSVTQQQQQQQQQPPQQQQQQQQSSQEQQLPSVQQPAQAQLGQPPQQFLQTSRLLHGNPSTQLILSAAFPLQQSTFPPSHHQQHQPQQQQQLPRHRTDSLTDPSKVQPQ
